# Reference: PubChem BioAssay (Tox21)
# Protein sequences, listed by entry. Tags and fused reporters are not part of them. Lines headed by an entry give the natural chain unless they say otherwise; changes in a name come on top.
# UniProt P11712, whole entry, looked up: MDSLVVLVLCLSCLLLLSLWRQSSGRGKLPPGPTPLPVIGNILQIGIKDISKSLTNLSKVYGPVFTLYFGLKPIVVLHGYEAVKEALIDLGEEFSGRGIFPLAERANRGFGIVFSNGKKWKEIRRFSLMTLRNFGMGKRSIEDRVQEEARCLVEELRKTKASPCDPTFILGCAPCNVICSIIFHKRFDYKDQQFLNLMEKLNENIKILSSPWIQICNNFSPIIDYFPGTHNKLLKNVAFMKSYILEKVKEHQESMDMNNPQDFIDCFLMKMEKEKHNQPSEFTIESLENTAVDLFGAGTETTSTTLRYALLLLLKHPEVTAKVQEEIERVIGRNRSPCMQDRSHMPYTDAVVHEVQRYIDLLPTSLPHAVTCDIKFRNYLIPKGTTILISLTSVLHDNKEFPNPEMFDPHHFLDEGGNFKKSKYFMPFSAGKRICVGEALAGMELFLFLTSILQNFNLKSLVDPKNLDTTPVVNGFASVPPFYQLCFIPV
# UniProt P05177, whole entry, looked up: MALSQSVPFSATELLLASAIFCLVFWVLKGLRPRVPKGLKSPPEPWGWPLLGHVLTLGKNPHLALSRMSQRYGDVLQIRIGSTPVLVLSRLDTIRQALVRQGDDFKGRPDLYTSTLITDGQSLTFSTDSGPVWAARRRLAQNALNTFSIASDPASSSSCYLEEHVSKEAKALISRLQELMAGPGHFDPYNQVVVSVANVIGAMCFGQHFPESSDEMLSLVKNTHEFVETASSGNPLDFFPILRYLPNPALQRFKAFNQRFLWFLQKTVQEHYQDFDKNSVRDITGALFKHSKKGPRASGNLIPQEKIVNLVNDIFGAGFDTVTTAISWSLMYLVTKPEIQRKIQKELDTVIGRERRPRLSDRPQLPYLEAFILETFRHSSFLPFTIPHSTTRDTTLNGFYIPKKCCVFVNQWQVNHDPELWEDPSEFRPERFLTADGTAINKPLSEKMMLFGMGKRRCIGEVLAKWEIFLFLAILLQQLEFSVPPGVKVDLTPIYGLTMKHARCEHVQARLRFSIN
# UniProt Q12809: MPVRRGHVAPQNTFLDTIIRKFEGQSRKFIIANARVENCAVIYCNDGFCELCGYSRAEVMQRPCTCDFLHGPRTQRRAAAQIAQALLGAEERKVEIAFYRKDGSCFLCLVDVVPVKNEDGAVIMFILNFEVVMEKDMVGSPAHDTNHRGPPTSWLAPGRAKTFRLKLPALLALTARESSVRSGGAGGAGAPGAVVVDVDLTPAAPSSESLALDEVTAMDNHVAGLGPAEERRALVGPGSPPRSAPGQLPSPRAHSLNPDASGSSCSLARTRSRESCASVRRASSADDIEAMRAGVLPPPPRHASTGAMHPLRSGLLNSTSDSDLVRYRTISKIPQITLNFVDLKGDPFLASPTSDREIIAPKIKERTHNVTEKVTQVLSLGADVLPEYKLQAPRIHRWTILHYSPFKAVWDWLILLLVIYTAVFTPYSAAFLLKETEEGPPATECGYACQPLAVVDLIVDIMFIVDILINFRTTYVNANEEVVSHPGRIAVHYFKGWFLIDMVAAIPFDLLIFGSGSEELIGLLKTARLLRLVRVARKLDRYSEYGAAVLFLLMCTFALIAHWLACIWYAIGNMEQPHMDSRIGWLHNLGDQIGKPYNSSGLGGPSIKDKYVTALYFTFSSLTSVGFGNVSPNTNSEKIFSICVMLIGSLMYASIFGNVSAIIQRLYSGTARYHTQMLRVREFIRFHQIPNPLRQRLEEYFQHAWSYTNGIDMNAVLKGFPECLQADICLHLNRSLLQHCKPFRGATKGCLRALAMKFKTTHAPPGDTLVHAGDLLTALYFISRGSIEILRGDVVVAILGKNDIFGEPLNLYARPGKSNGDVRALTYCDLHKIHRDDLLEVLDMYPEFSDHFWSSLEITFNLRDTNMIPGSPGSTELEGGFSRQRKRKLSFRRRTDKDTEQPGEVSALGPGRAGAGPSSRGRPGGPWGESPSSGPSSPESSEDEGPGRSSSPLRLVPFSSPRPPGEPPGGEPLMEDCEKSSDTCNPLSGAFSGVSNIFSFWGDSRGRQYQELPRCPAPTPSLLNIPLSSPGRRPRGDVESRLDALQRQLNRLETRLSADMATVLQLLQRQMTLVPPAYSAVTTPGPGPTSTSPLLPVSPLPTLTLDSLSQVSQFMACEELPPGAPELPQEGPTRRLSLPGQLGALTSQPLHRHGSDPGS
# UniProt P08684, whole entry, looked up: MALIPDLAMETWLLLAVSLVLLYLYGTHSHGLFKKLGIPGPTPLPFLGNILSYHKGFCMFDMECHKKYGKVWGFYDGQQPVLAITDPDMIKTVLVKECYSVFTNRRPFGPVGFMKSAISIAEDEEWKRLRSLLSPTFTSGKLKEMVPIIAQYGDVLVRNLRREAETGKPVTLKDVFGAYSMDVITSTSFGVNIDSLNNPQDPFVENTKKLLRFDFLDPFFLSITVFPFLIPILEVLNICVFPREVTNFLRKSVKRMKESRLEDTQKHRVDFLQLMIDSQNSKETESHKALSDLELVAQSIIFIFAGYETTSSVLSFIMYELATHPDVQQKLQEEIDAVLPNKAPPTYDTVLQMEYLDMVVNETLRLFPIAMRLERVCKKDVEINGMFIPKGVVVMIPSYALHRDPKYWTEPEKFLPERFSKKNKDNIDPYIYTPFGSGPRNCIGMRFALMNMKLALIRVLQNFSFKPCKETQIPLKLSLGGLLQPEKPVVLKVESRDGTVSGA
# “And” between values parts separate entries of the source, which are not always exact repeats. Equal values may be shown once. This list was built around the results that the source calls inconclusive (neither active nor inactive); the mix of calls is not that of the screen. Where the call is inconclusive, the potency comes from a doubtful curve fit. Some compounds were tested as several samples or in several runs, with calls that do not always agree. The source made the active and inactive calls. Calls come from the whole dose curve; as a rule, active = well fitted curve in the direction sought with a large enough effect in the repeat runs; inconclusive = weak or mixed curves; inactive = no such curve, though single readings can be large; an effect the other way counts as inactive or inconclusive.
# What was measured:
# [1] = target: Cytochrome P450 2C9 (Homo sapiens) (UniProt P11712); assay: Cytochrome P450 Family 2 Subfamily C Member 9 (CYP2C9) small molecule antagonists: luciferase reporter qHTS assay (AID 1671198)
# Method in brief: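 P450-Glo proluciferin substrate with CYP2C9 enzyme; 10 min RT preincubation, then NADPH regeneration 1 h at 37C; luciferin detection reagent 20 min RT, luminescence in relative luminescence units.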
# [2] = target: Cytochrome P450 1A2 (Homo sapiens) (UniProt P05177); assay: Cytochrome P450 Family 1 Subfamily A Member 2 (CYP1A2) small molecule antagonists: luciferase reporter qHTS assay (AID 1671199)
# Method in brief: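 Read-out is luminescence from luciferin detection reagent (20 min) proportional to CYP1A2 activity; compounds in DMSO preincubated 10 min with enzyme and proluciferin substrate, then NADPH regeneration solution, 1 h, room temperature.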
# [3] = target: Voltage-gated inwardly rectifying potassium channel KCNH2 (Homo sapiens) (UniProt Q12809); assay: Human Ether-a-go-go-Related Gene (hERG) channel small molecule antagonists: fluorescence cell-based qHTS assay (AID 1671200)
# Method in brief: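 Measured: Tl+ flux via fluorescence (480/540 nm) in hERG-expressing U2OS cells after 1 h dye loading at room temperature.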
# [4] = target: Cytochrome P450 3A4 (Homo sapiens) (UniProt P08684); assay: Cytochrome P450 Family 3 Subfamily A Member 4 (CYP3A4) small molecule antagonists: luciferase reporter qHTS assay (AID 1671201)
# Method in brief: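 Setup: enzyme-substrate mix, compound pin transfer, 10 min RT. Reaction: NADPH regeneration solution, 1 h RT. Readout: detection reagent stops turnover, luminescence measured after 20 min, expressed in relative luminescence units.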
# Note: nearly all actives have a fitted effect of over 50% in size.
# Potency is the fitted concentration of half-maximal effect.
smiles,measurement,setting,value
CCOCCOC(C)=O,Potency,[1],"inconclusive: 71 µM [inhibitor, partial curve, poor fit]"
same,Potency,[2],active: 43.5 µM
CCCCCON=O,Potency,[1],inactive
same,Potency,[2],inactive
c1ccc(OP(Oc2ccccc2)Oc2ccccc2)cc1,Potency,[1],"inconclusive: 89.4 µM [inhibitor, single point]"
same,Potency,[2],"inconclusive: 79.6 µM [inhibitor, partial curve, poor fit]"
O=C(Cl)OCCOCCOC(=O)Cl,Potency,[1],"inconclusive: 79.6 µM [inhibitor, partial curve]"
same,Potency,[2],"inconclusive: 71 µM [inhibitor, partial curve]"
CON(C)C(=O)Nc1ccc(Br)c(Cl)c1,Potency,[1],active: 63.3 µM
same,Potency,[2],active: 1.78 µM
O=C(C(Cl)(Cl)Cl)C(Cl)(Cl)Cl,Potency,[1],inactive
same,Potency,[2],"inconclusive: 64.6 µM [inhibitor, partial curve, poor fit]"
COCCOCCO,Potency,[1],"inconclusive: 89.4 µM [inhibitor, partial curve, poor fit]"
same,Potency,[2],"inconclusive: 57 µM [inhibitor, partial curve]"
CCCCCCCCCl,Potency,[1],"inconclusive: 92.3 µM [inhibitor, partial curve, poor fit]"
same,Potency,[2],inactive
O=C(NC(=O)c1c(F)cccc1F)Nc1ccc(Cl)cc1,Potency,[1],"inconclusive: 35.6 µM [inhibitor, partial curve]"
same,Potency,[2],"inconclusive: 31.8 µM [inhibitor, partial curve, poor fit] and active: 35.6 µM"
Nc1ccc(Cl)cc1C(=O)c1ccccc1F,Potency,[1],active: 17.4 µM
same,Potency,[2],active: 15.5 µM
C/C=C/C=O,Potency,[1],"inconclusive: 27 µM [inhibitor, full curve]"
same,Potency,[2],"inconclusive: 34 µM [inhibitor, partial curve]"
CCCCP(CCCC)CCCC,Potency,[1],"inconclusive: 39.9 µM [inhibitor, partial curve]"
same,Potency,[2],"inconclusive: 44.8 µM [inhibitor, partial curve]"
CC(C)N(C(=O)CCl)c1ccccc1,Potency,[1],"inconclusive: 79.6 µM [inhibitor, partial curve, poor fit] and inconclusive: 63.3 µM [inhibitor, partial curve]"
same,Potency,[2],inconclusive: 63.3 µM [inhibitor]
COC(C)(C)C,Potency,[1],inactive
same,Potency,[2],"inconclusive: 69 µM [inhibitor, partial curve, poor fit]"
CNC(=O)Oc1cccc2c1OC(C)(C)O2,Potency,[1],"inconclusive: 82.6 µM [inhibitor, single point] and inconclusive: 71 µM [inhibitor, partial curve]"
same,Potency,[2],"inconclusive: 46.4 µM [inhibitor, partial curve, poor fit]"
NNc1ccccc1,Potency,[1],"inconclusive: 44.8 µM [inhibitor, partial curve] and inconclusive: 5.49 µM [inhibitor, full curve]"
same,Potency,[2],"inconclusive: 71 µM [inhibitor, partial curve]"
N#CNC#N,Potency,[1],inactive
same,Potency,[2],inactive
BrCc1ccc(Br)cc1,Potency,[1],inconclusive: 71 µM [inhibitor]
same,Potency,[2],"inconclusive: 12.6 µM [inhibitor, full curve, poor fit]"
CC(C)C(Br)C(=O)NC(N)=O (stereo not drawn),Potency,[1],inactive
same,Potency,[2],inactive
ClCCOCCCl,Potency,[1],inactive
same,Potency,[2],inactive
O=NN1CCNCC1,Potency,[1],"inconclusive: 39.5 µM [inhibitor, partial curve]"
same,Potency,[2],"inconclusive: 39.5 µM [inhibitor, partial curve]"
CC(C)(C)OOC(C)(C)C,Potency,[1],"inconclusive: 46.3 µM [inhibitor, partial curve, poor fit]"
same,Potency,[2],"inconclusive: 62 µM [inhibitor, partial curve, poor fit] and inactive"
CO/C=C(/C(=O)OC)c1ccccc1COc1cccc(C(F)(F)F)n1,Potency,[1],active: 39.9 µM
same,Potency,[2],active: 35.5 µM
N#CC(c1ccccc1)c1ccccc1,Potency,[2],"inconclusive: 31.7 µM [inhibitor, partial curve] and inconclusive: 35.6 µM [inhibitor, partial curve]"
CCCCCCCCCCCC[N+](C)(C)CCOc1ccccc1,Potency,[1],"inconclusive: 43.6 µM [inhibitor, single point]"
same,Potency,[3],active: 776 nM and active: 1.34 µM
CCN(CC)c1c([N+](=O)[O-])cc(C(F)(F)F)c(N)c1[N+](=O)[O-],Potency,[1],"inconclusive: 63.3 µM [inhibitor, single point]"
same,Potency,[4],"inconclusive: 71 µM [inhibitor, partial curve, poor fit]"
BrCCBr,Potency,[2],active: 30.9 µM and inactive
O=S(=O)(O)C(F)(F)C(F)(F)C(F)(F)C(F)(F)F,Potency,[2],"inconclusive: 37.7 µM [inhibitor, partial curve]"
CCCC[N+]1(C)CCCC1,Potency,[1],"inconclusive: 35.8 µM [inhibitor, partial curve]"
same,Potency,[3],inactive
O=[N+]([O-])c1cccc2cccnc12,Potency,[2],active: 36.5 µM
Cc1ccc(N)cc1C,Potency,[1],"inconclusive: 20.2 µM [inhibitor, full curve]"
same,Potency,[4],"inconclusive: 32 µM [inhibitor, full curve]"
Nc1cccc2ccccc12,Potency,[1],active: 35.8 µM and active: 50.2 µM
same,Potency,[4],"inconclusive: 35.8 µM [inhibitor, partial curve]"
O=C(c1ccccc1)C(Cl)Cl,Potency,[1],"inconclusive: 39.9 µM [inhibitor, partial curve, poor fit]"
same,Potency,[3],"inconclusive: 38.9 µM [inhibitor, partial curve, poor fit]"
O=CCCl,Potency,[1],"inconclusive: 63.3 µM [inhibitor, partial curve, poor fit]"
same,Potency,[4],inactive
N#C/C(N)=C(/N)C#N,Potency,[1],"inconclusive: 61.4 µM [inhibitor, partial curve]"
same,Potency,[4],inconclusive: 68.9 µM [inhibitor]
N#CSCc1ccccc1,Potency,[1],"inconclusive: 80 µM [inhibitor, single point]"
same,Potency,[4],"inconclusive: 71.3 µM [inhibitor, partial curve]"
ClP(Cl)(Cl)(Cl)Cl,Potency,[1],inactive
same,Potency,[4],"inconclusive: 28.5 µM [inhibitor, full curve]"
Nc1ccc(Cl)c(Cl)c1,Potency,[1],active: 36.4 µM and active: 35.6 µM
same,Potency,[4],"inconclusive: 35.6 µM [inhibitor, partial curve]"
CCCC(=O)Cl,Potency,[2],"inconclusive: 71 µM [inhibitor, partial curve, poor fit]"
CCOP(=S)(OCC)SCn1c(=O)oc2cc(Cl)ccc21,Potency,[1],active: 1.08 µM and active: 1.12 µM
same,Potency,[3],"inconclusive: 21.9 µM [inhibitor, full curve]"
CNC,Potency,[2],inconclusive: 63.2 µM [inhibitor] and inactive
c1nc[nH]n1,Potency,[1],"inactive and inconclusive: 79.6 µM [inhibitor, partial curve]"
same,Potency,[4],"inconclusive: 87.6 µM [inhibitor, partial curve, poor fit]"
Cc1cc(C)nc(Nc2ccccc2)n1,Potency,[1],inconclusive: 79.6 µM [inhibitor]
same,Potency,[4],inactive
COc1c(C(C)(C)C)cc([N+](=O)[O-])c(C)c1[N+](=O)[O-],Potency,[1],"inconclusive: 31.5 µM [inhibitor, partial curve]"
same,Potency,[3],"inconclusive: 19.3 µM [inhibitor, partial curve]"
Clc1cccc2ccccc12,Potency,[2],"inconclusive: 69.7 µM [inhibitor, partial curve]"
Cc1cccc(N)c1C,Potency,[1],"inconclusive: 13.1 µM [inhibitor, full curve, poor fit] and inconclusive: 50.2 µM [inhibitor, partial curve, poor fit]"
same,Potency,[4],"inconclusive: 89.4 µM [inhibitor, single point]"
C#CCOC(C(=O)OCCN(C)C)(c1ccccc1)c1ccccc1,Potency,[1],active: 2.19 µM
same,Potency,[3],"inconclusive: 26.8 µM [inhibitor, single point]"
CC(C)(C#N)N=NC(C)(C)C#N,Potency,[1],inactive
same,Potency,[4],"inconclusive: 35.6 µM [inhibitor, partial curve]"
Clc1ccc(C(OCCN2CCCCC2)c2ccccc2)cc1 (stereo not drawn),Potency,[2],"inconclusive: 24.5 µM [inhibitor, partial curve]"
C=CC(=C)C,Potency,[2],inactive
CCOC(=O)Nc1cccc(OC(=O)Nc2ccccc2)c1,Potency,[1],"inconclusive: 39.9 µM [inhibitor, partial curve]"
same,Potency,[4],"inconclusive: 71 µM [inhibitor, partial curve]"
CCCC[n+]1ccc(C)cc1,Potency,[1],inactive and active: 22.3 µM
same,Potency,[3],"inconclusive: 38.7 µM [inhibitor, partial curve] and inconclusive: 24.6 µM [inhibitor, partial curve]"
same,Potency,[4],"inconclusive: 63 µM [inhibitor, single point]"
OCCCBr,Potency,[1],"inconclusive: 39.9 µM [inhibitor, partial curve]"
same,Potency,[4],"inconclusive: 6.33 µM [inhibitor, full curve]"
Cc1ccc(N)c(C)c1,Potency,[1],inconclusive: 35.2 µM [inhibitor] and active: 35.7 µM
same,Potency,[4],"inconclusive: 70.2 µM [inhibitor, partial curve, poor fit]"
COC(N)=O,Potency,[2],active: 35.6 µM
CC(C)(C)c1cc([N+](=O)[O-])cc(C(C)(C)C)c1O,Potency,[1],active: 12.6 µM
same,Potency,[3],"inconclusive: 38.9 µM [inhibitor, partial curve]"

# At a glance, some entries already given.
smiles,measurement,setting,value
CCCC[n+]1ccc(C)cc1,Potency,[4],"inconclusive: 63 µM [inhibitor, single point]"
OCCCBr,Potency,[1],"inconclusive: 39.9 µM [inhibitor, partial curve]"
same,Potency,[4],"inconclusive: 6.33 µM [inhibitor, full curve]"
Cc1ccc(N)c(C)c1,Potency,[1],inconclusive: 35.2 µM [inhibitor] and active: 35.7 µM
same,Potency,[4],"inconclusive: 70.2 µM [inhibitor, partial curve, poor fit]"
COC(N)=O,Potency,[2],active: 35.6 µM
CC(C)(C)c1cc([N+](=O)[O-])cc(C(C)(C)C)c1O,Potency,[1],active: 12.6 µM
